Patent US20050233328A1

Molecular target: transcriptional factor (TIF1)
Assay: yeast two-hybrid (PathCalling), detected several times with different libraries

B1: Transketolase (TKT) (enzyme)
chain: MESYHKPDQQKLQALKDTANRLRISSIQATTAAGSGHPTSCCSAAEIMAVLFFHTMRYKSQDPRNPHNDRFVLSKGHAAPILYAVWAEAGFLAEAELLNLRKISSDLDGHPVPKQAFTDVATGSLGQGLGAACGMAYTGKYFDKASYRVYCLLGDGELSEGSVWEAMAFASIYKLDNLVAILDINRLGQSDPAPLQHQMDIYQKRCEAFGWHAIIVDGHSVEELCKAFGQAKHQPTAIIAKTFKGRGITGVEDKESWHGKPLPKNMAEQIIQEIYSQIQSKKKILATPPQEDAPSVDIANIRMPSLPSYKVGDKIATRKAYGQALAKLGHASDRIIALDGDTKNSTFSEIFKKEHPDRFIECYIAEQNMVSIAVGCATRNRTVPFCSTFAAFFTRAFDQIRMAAISESNINLCGSHCGVSIGEDGPSQMALEDLAMFRSVPTSTVFYPSDGVATEKAVELAANTKGICFIRTSRPENAIIYNNNEDFQVGQAKVVLKSKDDQVTVIGAGVTLHEALAAAELLKKEKINIRVLDPFTIKPLDRKLILDSARATKGRILTVEDHYYEGGIGEAVSSAVVGEPGITVTHLAVNRVPRSGKPAELLKMFGIDRDAIAQAVRGLITKA
- binding: binds

No constants are given. Whether binding was seen depends on the method and setting. A result given as binding can be weak or reduced; the word gives no strength.
